Data as given in PubChem BioAssay AID504791 (Drosophila RNAi Screening Center, 2011).
Aim: 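Genes of the fly required for silencing by miRNA, siRNA or endo-siRNA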 (primary screen). System: Drosophila S2-derived reporter cells. Reagent: long dsRNA against Drosophila genes, about 150-250 ng dsRNA per well (siRNA assay); about 80-120 ng (miRNA assay). Timing: about 5 days (siRNA assay); about 4 days (miRNA assay). Conditions: copper sulfate induction of reporters: 25 µM (siRNA assay); 200 mM stated (miRNA assay), 1-2 days before reading. Measurement: 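Per-well ratio of Renilla over firefly light, expressed relative to that plate's average ratio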. Hit rule: 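First-pass picks had plate-scaled ratios over 1.5 for the siRNA assay, over 1.6 for the miRNA assay, or under 0.6; two distinct dsRNAs had to score alike on retest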.
In all, the deposit lists about 23,000 reagents; below is a random part of those that have a named target and a result. In the full data, 199 (0.86%) got an active call. 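Plate-scaled ratios behind the calls are not deposited; printed light signals are raw; many rows marked increased or decreased are still called inactive.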 Further read-outs or replicates are left out here. Not stated in the record: the direction of the score.

no.	gene knocked down	amplicon	stable siRNA reporter change	miRNA reporter change	stable assay Renilla, run 1 (luminescence)	outcome
1	CG6805 (GeneID 36911)	DRSC07011			9941	inactive
2	His3.3B (GeneID 31848)	DRSC17773			6263	inactive
3	His3.3B (GeneID 31848)	DRSC18673			6356	inactive
4	mts (GeneID 45959)	DRSC03574		reporter ratio raised past the hit cutoff	89683	inactive
5	CG11251 (GeneID 39490)	DRSC09825			7498	inactive
6	Nph (GeneID 43559)	DRSC16342			6043	inactive
7	rhi (GeneID 44879)	DRSC05996			6084	inactive
8	CG14891 (GeneID 42013)	DRSC15013			9584	inactive
9	zye (GeneID 40255)	DRSC11784			7039	inactive
10	phr6-4 (GeneID 35322)	DRSC03589			8406	inactive
11	CG31418 (GeneID 42084)	DRSC21780			8742	inactive
12	Upf2 (GeneID 31724)	DRSC18218			6066	inactive
13	Polr1A (GeneID 36617)	DRSC07535			8488	inactive
14	ms(3)76Ba (GeneID 40109)	DRSC10091			9467	inactive
15	sbr (GeneID 43944)	DRSC19770			5028	inactive
16	sbr (GeneID 43944)	DRSC20368		reporter ratio lowered past the hit cutoff	5416	active
17	sbr (GeneID 43944)	DRSC29803		reporter ratio lowered past the hit cutoff		active
18	CG7252 (GeneID 39353)	DRSC10789			6216	inactive
19	CG7252 (GeneID 39353)	DRSC21492			8287	inactive
20	CG9067 (GeneID 36197)	DRSC07328			6083	inactive
21	Ask1 (GeneID 42366)	DRSC16789			6658	inactive
22	Ask1 (GeneID 42366)	DRSC21697			10018	inactive
23	Nadsyn (GeneID 32328)	DRSC20222			8003	inactive
24	CG14459 (GeneID 40476)	DRSC11719	reporter ratio raised past the hit cutoff		7168	inactive
25	CG14459 (GeneID 40476)	DRSC23039			5068	inactive
26	l(3)87Df (GeneID 49762)	DRSC16982	reporter ratio lowered past the hit cutoff		6363	inactive
27	CG13678 (GeneID 38922)	DRSC10036			4120	inactive
28	tyn (GeneID 3354987)	DRSC20652			4335	inactive
29	CG8405 (GeneID 36772)	DRSC05599			9315	inactive
30	CG8405 (GeneID 36772)	DRSC07166			6322	inactive
31	CG16976 (retired record) (GeneID 38336)	DRSC08262			9823	inactive
32	CG16976 (retired record) (GeneID 38336)	DRSC08499			6275	inactive
33	Qtzl (GeneID 318990)	DRSC01221			5319	inactive
34	Exo70 (GeneID 38959)	DRSC10774			7338	inactive

3 consecutive records from above, quoted:
no.	gene knocked down	amplicon	stable siRNA reporter change	miRNA reporter change	stable assay Renilla, run 1 (luminescence)	outcome
27	CG13678 (GeneID 38922)	DRSC10036			4120	inactive
28	tyn (GeneID 3354987)	DRSC20652			4335	inactive
29	CG8405 (GeneID 36772)	DRSC05599			9315	inactive
